Laboratory results published in PubChem BioAssay AID540256 (National Center for Advancing Translational Sciences (NCATS), 2011).
Out of some 300,000 compounds screened, about 3,700 (1.2%) were called active. Inconclusive means that the source gave no clear call. Such entries were picked first, then a sample of the others. The call rests on the fitted dose curve; tested in HEK293 cells. Where the call is inconclusive, the potency comes from a doubtful curve fit.

assay: qHTS for Inhibitors of binding or entry into cells for Lassa Virus; conditions: Lassa virus pseudotype entry inhibition, cell reporter; activity change, negative = inhibition: at 37.9 µM (top of the series) unless noted; further: nearly all actives have a fitted effect of over 50% in size
On the % scale 0 is the no-effect control and ±100 the full control effect; potency means the concentration at half of the fitted maximal effect.

Compound	Potency	activity change, negative = inhibition
COc1ccccc1C(=O)NCC(=O)OCC(=O)N1CC(C)OC(C)C1 (stereo not given)	inconclusive: 1.26 µM [inhibitor, full curve, poor fit]	–
CCCCNC(=O)c1ccc2c(=O)n(-c3ccccc3)c(=O)[nH]c2c1	–	inactive: 8.82% [at 46.1 µM]
Nc1ccc(-c2nc3cc(N)ccc3s2)cc1	inconclusive: 14.1 µM [inhibitor, single point]	–
CCCCN(C)CCNC(=O)C(NC(=O)C1CCC(C)CC1)C(C)C (stereo not given)	–	inactive: 8.76% [at 46.1 µM]
Cc1cc(C(=O)CSc2nnc(-c3ccccc3)o2)c(C)n1CC1COc2ccccc2O1 (stereo not given)	–	inactive: 1.4%
O=C(N/N=C/c1ccccc1O)c1cccc(C(F)(F)F)c1	inconclusive: 8.2 µM [inhibitor, partial curve]	–
CCOC(=O)C1CCN(C(=O)CSc2c3c(nc4ccc(Cl)cc24)CCCC3)CC1	inconclusive: 22.4 µM [inhibitor, single point]	–
COc1cccc(CN2CCNC(=O)C2CC(=O)NCC(C)(C)N2CCOCC2)c1OC (stereo not given)	–	inactive: 15.3%
C/C(=N\NC(=O)c1c[nH]c2ccccc12)c1ccccn1	active: 2 µM	–
CCOc1ccc(S(=O)(=O)Nc2ccc3c(c2)c(C(C)=O)c(C)n3S(=O)(=O)c2ccc(OCC)cc2)cc1	inconclusive: 7.08 µM [inhibitor, partial curve, poor fit]	–
CCCCn1c(CCC)nc([N+](=O)[O-])c1Sc1ccc(Cl)cn1	inconclusive: 6.51 µM [inhibitor, partial curve]	–
O=C(OCC(=O)N1CCOCC1)c1ccc(Br)cc1	–	inactive: 17.5%
O=C(Nc1cccc(NC(=O)c2ccc(-c3ccc(Br)cc3)o2)c1)c1ccco1	inconclusive: 29.1 µM [inhibitor, single point]	–
O=C(CSc1nnc(Cc2cccs2)n1C1CCCCC1)N1CCCc2ccccc21	inconclusive: 31.6 µM [inhibitor, single point]	–
CC(=O)CCc1c(C)c2cc(C)ccc2[nH]c1=O	–	inactive: 13.8%
CC12CCC(=O)N1C(C(=O)Nc1ccccc1N1CCCC1)CS2 (stereo not given)	–	inactive: 1.11%
COCCNC(=O)/C(C#N)=C/c1cccc(/C=C(\C#N)C(=O)NCCOC)c1	inconclusive: 22.4 µM [inhibitor, single point]	–
CN1CCN(C2Cc3ccc(F)cc3Sc3cc(F)c(Cl)cc32)CC1 (stereo not given)	inconclusive: 7.94 µM [inhibitor, partial curve]	–
Cc1nc(-c2nnc(-c3ccccc3)o2)c(C(F)(F)F)o1	inconclusive: 2.51 µM [activator, partial curve, poor fit]	–
C=CCOc1ccc(CN(C)C(=O)CNC(=O)c2ccc(-c3ccccc3)cc2)cc1	inconclusive: 3.16 µM [inhibitor, single point]	–
CCOC(=O)c1c(S(=O)(=O)N2CCCC(C(=O)Nc3ccc(C)cc3C)C2)c(C)n(CC)c1C (stereo not given)	–	inactive: -10.6% [at 46.1 µM]
O=C(Nn1cnc2ccccc2c1=O)c1ccc(Br)cc1	inconclusive: 11.2 µM [activator, partial curve]	–
COc1cc(C(=O)NC(=S)NCc2ccco2)cc(OC)c1OC	inconclusive: 1.46 µM [inhibitor, full curve]	–

Compound	Potency	activity change, negative = inhibition
CC(O)C(=O)N/N=C/c1cccc(Cl)c1Cl (stereo not given)	–	inactive: 13.2%
CCC(=O)Nc1ccc2nc(SCC(=O)N3CCc4ccccc43)sc2c1	–	inactive: 8.37% [at 46.1 µM]
c1ccc(-c2cc(-c3nc4ccccc4[nH]3)c3ccccc3n2)cc1	inconclusive: 16.4 µM [inhibitor, single point]	–
COc1ccc(N(CC(=O)NCc2ccccc2C)S(=O)(=O)c2ccc(C)cc2)cc1OC	–	inactive: -10.1%
COc1ccc(S(=O)(=O)N2CCOCC2)cc1NC(=O)c1ccccc1-c1ccc(C(F)(F)F)cc1	active: 6.31 µM	–
CCCNC(=O)C1CN(S(=O)(=O)c2ccccc2)CCN1S(=O)(=O)c1ccccc1 (stereo not given)	–	inactive: -1.42%
O=S(=O)(NCCSCc1c(Cl)cccc1Cl)c1ccc2c(c1)OCCO2	–	inactive: -6.54%
CN(Cc1ccccc1)c1ncnc2c1nc1n2CCCC1	inconclusive: 12.6 µM [inhibitor, partial curve, poor fit]	–
COc1ccccc1N(CC(=O)NCCSCc1ccc(Cl)cc1)S(C)(=O)=O	inconclusive: 20 µM [inhibitor, partial curve, poor fit]	–
CCCS(=O)(=O)NCCc1csc2nc(-c3ccc(OC)cc3)nn12	–	inactive: 2.07% [at 46.1 µM]
N#Cc1ccccc1NC(=O)CSc1nnc(-c2ccccc2)n1-c1ccccc1	inconclusive: 10 µM [inhibitor, partial curve]	–
Cc1ccccc1CNC(=O)CCCn1nc(C)c2sc3ccccc3c2c1=O	inconclusive: 3.16 µM [activator, partial curve, poor fit]	–
COc1ccc(C2NC(=O)NC(C)=C2C(=O)Nc2cc(C)cc(C)c2)c(OC)c1 (stereo not given)	–	inactive: -3.27% [at 46.1 µM]
COc1ccc(-c2cc(C(=O)N3CC4(C)CC3CC(C)(C)C4)no2)cc1OC (stereo not given)	–	inactive: -3.94%
O=C(Nc1cc(Cl)cc(Cl)c1)C1CCC(=O)N1Cc1ccccc1Cl (stereo not given)	inconclusive: 0.517 µM [inhibitor, full curve, poor fit]	–
CCOc1ccc(C2/C(=C(\O)c3ccc4c(c3)OCCO4)C(=O)C(=O)N2CCN2CCOCC2)cc1OC (stereo not given)	inconclusive: 1.41 µM [activator, full curve, poor fit]	–
S=C(NCC1CCCCC1)Nc1ccc(Oc2ccccc2)cc1	inconclusive: 29.1 µM [inhibitor, single point]	–
O=C1/C(=C/Nc2ccc3c(c2)OCO3)CCc2ccccc21	active: 1.41 µM	–
Oc1ccc(-c2csc(-c3cccnc3)n2)cc1O	inconclusive: 7.08 µM [inhibitor, full curve]	–
O=C1c2ccccc2C2(c3cc(C(F)(F)F)cc(C(F)(F)F)c3)NCCN12 (stereo not given)	inconclusive: 35.5 µM [inhibitor, single point]	–
C=CCOc1ccc(-c2nc3c(c(=O)[nH]c(=O)n3CCCC)n2C)cc1Br	inconclusive: 2.51 µM [inhibitor, full curve]	–
COc1ccc(CN(C)C(=O)c2cccc(Oc3ccccc3)c2)c(OC)c1OC	inconclusive: 2.51 µM [inhibitor, partial curve, poor fit]	–

Complete entries, looked up by structure. Order of values: Potency | activity change, negative = inhibition
`O=C1c2ccccc2C2(c3cc(C(F)(F)F)cc(C(F)(F)F)c3)NCCN12` (stereo not given) in the list: inconclusive: 35.5 µM [inhibitor, single point] | –
`COc1ccc(N(CC(=O)NCc2ccccc2C)S(=O)(=O)c2ccc(C)cc2)cc1OC` in the list: – | inactive: -10.1%
`C=CCOc1ccc(-c2nc3c(c(=O)[nH]c(=O)n3CCCC)n2C)cc1Br` in the list: inconclusive: 2.51 µM [inhibitor, full curve] | –
